The target of assay [1] is alanine:glyoxylate aminotransferase, wild type (major allele), recombinant His-tagged (human) (UniProt P21549). The assay can be described thus: dynamic light scattering; holo-AGT, 5 µM AGT (in subunit) and 50 µM PLP, 20 mM Na-Hepes, 200 mM NaCl pH 7.4, 25°C; both purified.
Assay [2] deals with alanine:glyoxylate aminotransferase p.I340M, recombinant His-tagged (human) (UniProt P21549). Described as above.
Assay [3] shares this target. The assay can be described thus: crystal structure; p.I340M, 1.90 Å, space group P212121; 15% PEG 3350, 0.1 M Bis-Tris pH 5.2, 150 mM Li2SO4, 291 K; both purified.
For assay [4], the target named is alanine:glyoxylate aminotransferase p.P11L, recombinant His-tagged (human) (UniProt P21549). As to the kind of experiment: dynamic light scattering; holo-AGT, 5 µM AGT (in subunit) and 50 µM PLP, 20 mM Na-Hepes, 200 mM NaCl pH 7.4, 25°C; both purified.
Assay [5] addresses alanine:glyoxylate aminotransferase p.G170R on the minor allele, recombinant His-tagged (human) (UniProt P21549). Described as above.
The target in assay [6] is alanine:glyoxylate aminotransferase minor allele (p.P11L/I340M), recombinant His-tagged (human) (UniProt P21549). The assay is described as above.
Assay [7] addresses alanine:glyoxylate aminotransferase p.A295T on the minor allele, recombinant His-tagged (human) (UniProt P21549). The description is as above.
Assay [8] has as its target alanine:glyoxylate aminotransferase p.A368T on the minor allele, recombinant His-tagged (human) (UniProt P21549). Described as above.
For assay [9], the target named is alanine:glyoxylate aminotransferase p.P319L on the minor allele, recombinant His-tagged (human) (UniProt P21549). The assay is described as above.
Assay [10] has as its target alanine:glyoxylate aminotransferase p.F152I on the minor allele, recombinant His-tagged (human) (UniProt P21549). The description is as above.
Assay [11] deals with alanine:glyoxylate aminotransferase p.H83R on the minor allele, recombinant His-tagged (human) (UniProt P21549). The description is as above.
The target in assay [12] is alanine:glyoxylate aminotransferase p.R197Q on the minor allele, recombinant His-tagged (human) (UniProt P21549). The description is as above.
Assay [13] has as its target alanine:glyoxylate aminotransferase p.I244T on the minor allele, recombinant His-tagged (human) (UniProt P21549). The assay is described as above.

Here are results for twelve molecules from article PMC3796444 (PLoS ONE, 2013).

Positions count from the first letter of the chain named. Numbers in names are those of the source. These are yes or no findings as the source states them, for the method shown. Some entries that bind do so weakly or less than the wild type.

Regarding “alanine:glyoxylate aminotransferase, wild type (major allele), recombinant His-tagged (from UniProt P21549 1-392) (enzyme)”, in assay [1], the binding result was “binds”.

B1: alanine:glyoxylate aminotransferase p.I340M, recombinant His-tagged (enzyme, human)
chain: MASHKLLVTPPKALLKPLSIPNQLLLGPGPSNLPPRIMAAGGLQMIGSMSKDMYQIMDEIKEGIQYVFQTRNPLTLVISGSGHCALEAALVNVLEPGDSFLVGANGIWGQRAVDIGERIGARVHPMTKDPGGHYTLQEVEEGLAQHKPVLLFLTHGESSTGVLQPLDGFGELCHRYKCLLLVDSVASLGGTPLYMDRQGIDILYSGSQKALNAPPGTSLISFSDKAKKKMYSRKTKPFSFYLDIKWLANFWGCDDQPRMYHHTIPVISLYSLRESLALIAEQGLENSWRQHREAAAYLHGRLQALGLQLFVKDPALRLPTVTTVAVPAGYDWRDIVSYVMDHFDIEIMGGLGPSTGKVLRIGLLGCNATRENVDRVTEALRAAL
notes: alanine:glyoxylate aminotransferase (AGT), human, polymorphic variant p.I340M; Crystallised here (PDB 2YOB); source: E. coli BL21 (pCOLDII), purified (IMAC, SEC)
As to B1, the binding result in assay [2] and in assay [3] was “binds” each time.

B2: alanine:glyoxylate aminotransferase p.P11L, recombinant His-tagged (enzyme, human, UniProt P21549 1-392, looked up)
chain: MASHKLLVTPLKALLKPLSIPNQLLLGPGPSNLPPRIMAAGGLQMIGSMSKDMYQIMDEIKEGIQYVFQTRNPLTLVISGSGHCALEAALVNVLEPGDSFLVGANGIWGQRAVDIGERIGARVHPMTKDPGGHYTLQEVEEGLAQHKPVLLFLTHGESSTGVLQPLDGFGELCHRYKCLLLVDSVASLGGTPLYMDRQGIDILYSGSQKALNAPPGTSLISFSDKAKKKMYSRKTKPFSFYLDIKWLANFWGCDDQPRMYHHTIPVISLYSLRESLALIAEQGLENSWRQHREAAAYLHGRLQALGLQLFVKDPALRLPTVTTVAVPAGYDWRDIVSYVIDHFDIEIMGGLGPSTGKVLRIGLLGCNATRENVDRVTEALRAALQHCPKKKL
notes: alanine:glyoxylate aminotransferase (AGT), human, polymorphic variant p.P11L; source: E. coli BL21 (pCOLDII), purified (IMAC, SEC)
As to B2, the binding entry in assay [4] was “binds”.

B3: alanine:glyoxylate aminotransferase p.G170R on the minor allele, recombinant His-tagged (enzyme, human, UniProt P21549 1-392, looked up)
chain: B2 chain with G170R, I340M
notes: alanine:glyoxylate aminotransferase (AGT), human, PH1 mutation p.G170R in the minor allele (p.P11L, p.G170R and p.I340M in cis); source: E. coli BL21 (pCOLDII), purified (IMAC, SEC)
On to B3, for which, in assay [5], the binding entry is “binds”.

B4: alanine:glyoxylate aminotransferase minor allele (p.P11L/I340M), recombinant His-tagged (enzyme, human, UniProt P21549 1-392, looked up)
chain: B2 chain with I340M
notes: alanine:glyoxylate aminotransferase (AGT), human, minor allele; also called AGT LM; LM; source: E. coli BL21 (pCOLDII), purified (IMAC, SEC)
With B4, the binding result in assay [6] is on record as “binds”.

B5: alanine:glyoxylate aminotransferase p.A295T on the minor allele, recombinant His-tagged (enzyme, human, UniProt P21549 1-392, looked up)
chain: B2 chain with A295T, I340M
notes: alanine:glyoxylate aminotransferase (AGT), human, rare variant p.A295T in the minor allele; source: E. coli BL21 (pCOLDII), purified (IMAC, SEC)
For the molecule B5, in assay [7], the binding entry was “binds”.

B6: alanine:glyoxylate aminotransferase p.A368T on the minor allele, recombinant His-tagged (enzyme, human, UniProt P21549 1-392, looked up)
chain: B2 chain with I340M, A368T
notes: alanine:glyoxylate aminotransferase (AGT), human, PH1 mutation p.A368T in the minor allele; source: E. coli BL21 (pCOLDII), purified (IMAC, SEC)
As to B6, the binding result in [8] is reported as “binds”.

B7: alanine:glyoxylate aminotransferase p.P319L on the minor allele, recombinant His-tagged (enzyme, human, UniProt P21549 1-392, looked up)
chain: B2 chain with P319L, I340M
notes: alanine:glyoxylate aminotransferase (AGT), human, PH1 mutation p.P319L in the minor allele; source: E. coli BL21 (pCOLDII), purified (IMAC, SEC)
B7: the binding result in assay [9] is reported as “binds”.

B8: alanine:glyoxylate aminotransferase p.F152I on the minor allele, recombinant His-tagged (enzyme, human, UniProt P21549 1-392, looked up)
chain: B2 chain with F152I, I340M
notes: alanine:glyoxylate aminotransferase (AGT), human, PH1 mutation p.F152I in the minor allele; source: E. coli BL21 (pCOLDII), purified (IMAC, SEC)
For the molecule B8, in [10], the binding entry is on record as “binds”.

B9: alanine:glyoxylate aminotransferase p.H83R on the minor allele, recombinant His-tagged (enzyme, human, UniProt P21549 1-392, looked up)
chain: B2 chain with H83R, I340M
notes: alanine:glyoxylate aminotransferase (AGT), human, PH1 mutation p.H83R in the minor allele; source: E. coli BL21 (pCOLDII), purified (IMAC, SEC)
With B9, in assay [11], the binding entry is “binds”.

B10: alanine:glyoxylate aminotransferase p.R197Q on the minor allele, recombinant His-tagged (enzyme, human, UniProt P21549 1-392, looked up)
chain: B2 chain with R197Q, I340M
notes: alanine:glyoxylate aminotransferase (AGT), human, rare variant p.R197Q in the minor allele; source: E. coli BL21 (pCOLDII), purified (IMAC, SEC)
Take B10: the binding entry in assay [12] was “binds”.

B11: alanine:glyoxylate aminotransferase p.I244T on the minor allele, recombinant His-tagged (enzyme, human, UniProt P21549 1-392, looked up)
chain: B2 chain with I244T, I340M
notes: alanine:glyoxylate aminotransferase (AGT), human, PH1 mutation p.I244T in the minor allele (p.P11L, p.I244T and p.I340M in cis); source: E. coli BL21 (pCOLDII), purified (IMAC, SEC)
Turning to B11, in assay [13], the binding result was “binds”.
